Results deposited as PubChem BioAssay AID1224828 (NIAID, 2016)
Aim: 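Find genes required for NF-kappaB p65 moving into the nucleus after LPS in mouse macrophages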 (primary screen). Cells: mouse RAW264.7 G9 macrophage reporter cells (GFP-p65, Tnf promoter-mCherry). Reagent: siRNA pool against mouse genes, 100 nM. Time to read-out: 2 days siRNA transfection, then 40 min LPS before fixation. Conditions: LPS (Salmonella minnesota R595) at 10 ng/ml. Measured: 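Imaged p65 nuclear translocation ratio, normalised to the plate median, converted to robust z-scores and averaged across two replicates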. Scale: p65 translocation robust z-score: higher = more nuclear NF-kappaB p65 after LPS than the plate median; nuclear/cytoplasmic p65 ratio: higher = more nuclear NF-kappaB p65. Hit rule: 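Called active when z exceeds 3.3 or falls under -1.56 (median of Tlr4 controls), giving activity score of at least 50; no calls for control wells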. Calls: active = hit (p65 shift raised or lowered); inactive = no clear change.
This is an unselected part of about 17,000 deposited reagents. Of all reagents, 762 (4.5%) are marked active. 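Active calls include both raised and lowered p65 entry, mostly lowered; wells with fewer than 50 cells lack a z-score.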 Raw values vary from plate to plate and are shown uncorrected. Unmarked entries are inactive. No sequences are given here.

The first 2 entries, ahead of the listing:
gene symbol	p65 translocation robust z-score	nuclear/cytoplasmic p65 ratio, rep 1	nuclear/cytoplasmic p65 ratio, rep 2	low cell count flag
Capn10	-0.79	1.5	1.49	enough cells to score
Ctsr	-1.17	1.33	1.67	enough cells to score

The listing, from the first entry:
gene symbol	p65 translocation robust z-score	nuclear/cytoplasmic p65 ratio, rep 1	nuclear/cytoplasmic p65 ratio, rep 2	low cell count flag
Capn10	-0.79	1.5	1.49	enough cells to score
Ctsr	-1.17	1.33	1.67	enough cells to score
Kcne3	-0.25	1.41	1.38	enough cells to score
Magea3	1.26	1.95	1.7	enough cells to score
Zbtb11os1		1.33	0.894	fewer than 50 cells per well; well left out of scoring
Alox5	1.29	1.62	1.55	enough cells to score
Mtnap1	-1.33	1.36	1.59	enough cells to score
Cpeb4	-0.38	1.5	1.74	enough cells to score
Fam167a	-0.09	1.4	1.48	enough cells to score
Cuedc1	0.2	1.46	1.55	enough cells to score
Slc26a9	-0.34	1.36	1.19	enough cells to score
Pip5k1a			1.03	fewer than 50 cells per well; well left out of scoring
Lingo4	0.21	1.4	1.56	enough cells to score
Lmtk2	2.27	2.01	1.7	enough cells to score
Atpsckmt		1.3	1.42	fewer than 50 cells per well; well left out of scoring
Tmem222	1.15	1.67	1.78	enough cells to score
Carf	-0.07	1.59	1.62	enough cells to score
Cmtm8	0.85	1.63	2.02	enough cells to score
Amy1	-1.35	1.38	1.5	enough cells to score
Cttnbp2nl	0.81	1.73	1.95	enough cells to score
Fcamr	1.4	1.03	1.67	enough cells to score
Mccc1	0.01	1.45	1.33	enough cells to score
Eif6	-0.5	1.46	1.39	enough cells to score
Cxcr6	-2.38 (active)	1.14	1.27	enough cells to score
